Drawing on the supplement of paper PMC7024190, this text covers log for 38 compounds.

Counter-ions that a name gives are not always drawn. This is one part of the list. This data set is noisy: repeats of one test often differ as much as different tests do.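 The cells were human embryonic kidney cells carrying a Renilla luciferase gene, driven by the HSV-TK promoter, on a plasmid put in briefly by transfection. This is the first-round screen of about ten thousand compounds, looking for ones that raise reporter output.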

This assay relates to HEK 293FT. The experiment in a line: log relative Renilla luciferase luminescence (reporter expression vs reference, reference not stated) (log (base not stated)); higher = higher recombinant reporter expression. The conditions noted are these: 10 µM; time after transfection 48 h.
Regarding `Cc1nnc2n1-c1sc(CCC(=O)N3CCOCC3)cc1C(c1ccccc1Cl)=NC2`, the log was -0.108.
On to `CC(=O)N1CC[N+](C)(C)CC1` [4-Acetyl-1,1-dimethylpiperazinium iodide], for which the log was 0.117.
The same measure for `O=C(O)/C=C/CO` [trans-4-Hydroxycrotonic acid]: -0.0209; for `CCOc1cncc(/C=C/CCNC)c1` [TC 2559 difumarate]: -0.0108.
Regarding `S=C(NC1CCCCC1)N1CCC(c2cnc[nH]2)CC1` [Thioperamide], the log was -0.0209.
Under `COc1ccc(CCN2CCC(Nc3nc4ccccc4n3Cc3ccc(F)cc3)CC2)cc1` [Astemizole] stands -0.0282; under `O=C(O)c1ccc2[nH]cc(CCCCN3CC=C(c4ccccc4)CC3)c2c1` [Carmoxirole hydrochloride], -0.0811.
On to `O=C(O)CCC(CP(=O)(O)O)C(=O)O` (stereo not drawn) [PMPA (NAALADase inhibitor)], for which the log is -0.0265.
Take `CN1[C@@H]2CC[C@H]1C[C@@H](OC(c1ccc(F)cc1)c1ccc(F)cc1)C2` [3 α-Bis-(4-fluorophenyl) methoxytropane hydrochloride]: the log was -0.0131.
With `O=C(CCCN1CCC2(CC1)C(=O)N(Cc1cccc(F)c1)CN2c1ccccc1)c1ccc(F)cc1` [3'-Fluorobenzylspiperone maleate], the log was determined as 0.0428.
`CN1C(=O)CCS(=O)(=O)C1c1ccc(Cl)cc1` (stereo not drawn) [Chlormezanone]: the log is -0.0609.
Consider `COC1(C[S@+]([O-])c2ccccc2)CCN(CCc2c[nH]c3ccc(F)cc23)CC1`, for which the log is -0.112.
Take `COc1cc2c(cc1O)C(CCc1ccc(Cl)cc1)N(C)CC2` (stereo not drawn): the log was 0.0158.
Turning to `CN1[C@@H]2CC[C@H]1CC(OC(=O)N1Cc3ccccc3NC1=O)C2` (stereo partly drawn) [DAU 5884 hydrochloride], the log is -0.0488.
Take `CC[N+](CC)(CCCNC1=CC(=O)C(NCCC[N+](CC)(CC)Cc2ccccc2)=CC1=O)Cc1ccccc1` [Benzoquinonium dibromide]: the log worked out at 0.179.
With `O=C1NC(=O)c2c1c1c3ccccc3[nH]c1c1[nH]c3ccccc3c21` [Arcyriaflavin A], the log is -0.187.
Consider `CN1C[C@H](CNC(=O)OCc2ccccc2)C[C@@H]2c3cccc4c3c(cn4C)C[C@H]21` [Metergoline], for which the log was -0.00432.
As to `C=C(C)[C@H]1CN[C@H](C(=O)O)[C@H]1CC(=O)O` [Kainic acid], the log was -0.101.
Take `O=C1Nc2ccccc2C2(CCN(CCc3ccc(C(F)(F)F)cc3)CC2)O1`: the log is -0.206.
On to `O=C1Nc2cc(Cl)c(Cl)cc2N2CCNCC12` (stereo not drawn), for which the log is -0.0637.
Under `Cc1cccc(C(C)c2c[nH]cn2)c1C` (stereo not drawn) [Medetomidine hydrochloride] stands -0.0983; under `c1ccc2sc(C3(N4CCCCC4)CCCCC3)cc2c1` [BTCP maleate], 0.00743; under `O=C1NC(=O)c2c1c1c3ccccc3n3c1c1c2c2ccccc2n1[C@H]1CC[C@@H]3O1`, -0.323.
On to `BrC1C(Br)C(Br)C(Br)C(Br)C1Br` (stereo not drawn) [1,2,3,4,5,6-Hexabromocyclohexane], for which the log is -0.0455.
The same measure for `C[C@@H]1CC[C@H]2[C@@H](C)C(=O)O[C@@H]3O[C@@]4(C)CC[C@@H]1[C@]32OO4` [Artemisinin]: -0.00359; for `Cc1nc(N)sc1CCN` [Amthamine dihydrobromide]: 0.0756; for `S=C=Nc1cccc(C2(N3CCCCC3)CCCCC2)c1` [Metaphit]: 0.146.
With `O=C(CCCN1CCC2(CC1)C(=O)NCN2c1ccccc1)c1ccc(F)cc1` [Spiperone hydrochloride], the log was -0.0476.
As for `N[C@@H](Cn1oc(=O)[nH]c1=O)C(=O)O` [L-Quisqualic acid], the log was -0.0164.
Under `C[C@@H](N)Cc1cnc[nH]1` [(R)-(-)- α-Methylhistamine dihydrobromide] stands -8.27e-06.
`NCC(CS(=O)(=O)O)c1ccc(Cl)cc1` (stereo not drawn) [Saclofen]: the log came out at 0.0505.
Take `COc1cc(N)c(Cl)cc1C(=O)NC1CN2CCC1CC2` (stereo not drawn) [Zacopride hydrochloride]: the log worked out at 0.209.
Under `CCCN1CCO[C@@H]2c3cc(O)ccc3OC[C@H]21` stands -0.076; under `CCOC(=O)c1ncc2[nH]c3ccc(OCc4ccccc4)cc3c2c1COC`, -0.0528.
Take `CCCOc1ccc2[nH]cc(C3=CCNCC3)c2n1`: the log is -0.0996.
`CC(C(=O)OC1CC2CCC(C1)N2C)c1ccc(Br)cc1` (stereo not drawn) [PG-9 maleate]: the log was -0.00216.
As for `CC(C)n1cnc2c(C(=O)N[C@H]3CN4CCC3CC4)cc(Cl)cc21`, the log was 0.103.
As for `C#CCOC(=O)C1=CCCN(C)C1` [Arecaidine propargyl ester tosylate], the log was -0.00977.
